Out of some 290,000 compounds screened, about 110 (0.038%) were called active. The shares of active, inactive and inconclusive entries below differ from those in the screen. Calls follow the shape of the dose curve; as a rule, active = well fitted inhibition curve with a large enough effect in the polarisation, with a control signal flat (not every such curve was filed as active); inconclusive = small, poorly fitted or top-dose-only effect, or effect the other way, or a change in a side signal; inactive = no such curve, though single readings can be large or run the other way; the % refers to the polarisation. A potency beside an inconclusive call is a rough fit, not a confirmed value. “Side channel” marks fits to a control or component signal instead of the main read-out.
What follows are compounds tested against Histone-lysine N-methyltransferase 2A (Homo sapiens) (UniProt Q03164) (assay: qHTS Fluorescence Polarization Assay for Inhibitors of MLL CXXC domain - DNA interaction). Details: MLL-CXXC / FITC-HOXA9 DNA fluorescence polarization; activity change, negative = inhibition: at 115 µM (top of the series).
How it was run: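 Steps: dispense CXXC domain solution (7 uM) → pin compounds or unlabeled HOX-A9 DNA control → 5 min ambient → add FLSN-HOX-A9 solution (50 nM) → spin → 30 min ambient → fluorescence polarization. Tris pH 7.5/NaCl/DTT/BSA buffer.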
Potency is read from the fitted curve at half-maximal effect.

Sequences of proteins named here, by UniProt entry; tags and fusion partners are left off.
UniProt Q03164, whole entry, looked up: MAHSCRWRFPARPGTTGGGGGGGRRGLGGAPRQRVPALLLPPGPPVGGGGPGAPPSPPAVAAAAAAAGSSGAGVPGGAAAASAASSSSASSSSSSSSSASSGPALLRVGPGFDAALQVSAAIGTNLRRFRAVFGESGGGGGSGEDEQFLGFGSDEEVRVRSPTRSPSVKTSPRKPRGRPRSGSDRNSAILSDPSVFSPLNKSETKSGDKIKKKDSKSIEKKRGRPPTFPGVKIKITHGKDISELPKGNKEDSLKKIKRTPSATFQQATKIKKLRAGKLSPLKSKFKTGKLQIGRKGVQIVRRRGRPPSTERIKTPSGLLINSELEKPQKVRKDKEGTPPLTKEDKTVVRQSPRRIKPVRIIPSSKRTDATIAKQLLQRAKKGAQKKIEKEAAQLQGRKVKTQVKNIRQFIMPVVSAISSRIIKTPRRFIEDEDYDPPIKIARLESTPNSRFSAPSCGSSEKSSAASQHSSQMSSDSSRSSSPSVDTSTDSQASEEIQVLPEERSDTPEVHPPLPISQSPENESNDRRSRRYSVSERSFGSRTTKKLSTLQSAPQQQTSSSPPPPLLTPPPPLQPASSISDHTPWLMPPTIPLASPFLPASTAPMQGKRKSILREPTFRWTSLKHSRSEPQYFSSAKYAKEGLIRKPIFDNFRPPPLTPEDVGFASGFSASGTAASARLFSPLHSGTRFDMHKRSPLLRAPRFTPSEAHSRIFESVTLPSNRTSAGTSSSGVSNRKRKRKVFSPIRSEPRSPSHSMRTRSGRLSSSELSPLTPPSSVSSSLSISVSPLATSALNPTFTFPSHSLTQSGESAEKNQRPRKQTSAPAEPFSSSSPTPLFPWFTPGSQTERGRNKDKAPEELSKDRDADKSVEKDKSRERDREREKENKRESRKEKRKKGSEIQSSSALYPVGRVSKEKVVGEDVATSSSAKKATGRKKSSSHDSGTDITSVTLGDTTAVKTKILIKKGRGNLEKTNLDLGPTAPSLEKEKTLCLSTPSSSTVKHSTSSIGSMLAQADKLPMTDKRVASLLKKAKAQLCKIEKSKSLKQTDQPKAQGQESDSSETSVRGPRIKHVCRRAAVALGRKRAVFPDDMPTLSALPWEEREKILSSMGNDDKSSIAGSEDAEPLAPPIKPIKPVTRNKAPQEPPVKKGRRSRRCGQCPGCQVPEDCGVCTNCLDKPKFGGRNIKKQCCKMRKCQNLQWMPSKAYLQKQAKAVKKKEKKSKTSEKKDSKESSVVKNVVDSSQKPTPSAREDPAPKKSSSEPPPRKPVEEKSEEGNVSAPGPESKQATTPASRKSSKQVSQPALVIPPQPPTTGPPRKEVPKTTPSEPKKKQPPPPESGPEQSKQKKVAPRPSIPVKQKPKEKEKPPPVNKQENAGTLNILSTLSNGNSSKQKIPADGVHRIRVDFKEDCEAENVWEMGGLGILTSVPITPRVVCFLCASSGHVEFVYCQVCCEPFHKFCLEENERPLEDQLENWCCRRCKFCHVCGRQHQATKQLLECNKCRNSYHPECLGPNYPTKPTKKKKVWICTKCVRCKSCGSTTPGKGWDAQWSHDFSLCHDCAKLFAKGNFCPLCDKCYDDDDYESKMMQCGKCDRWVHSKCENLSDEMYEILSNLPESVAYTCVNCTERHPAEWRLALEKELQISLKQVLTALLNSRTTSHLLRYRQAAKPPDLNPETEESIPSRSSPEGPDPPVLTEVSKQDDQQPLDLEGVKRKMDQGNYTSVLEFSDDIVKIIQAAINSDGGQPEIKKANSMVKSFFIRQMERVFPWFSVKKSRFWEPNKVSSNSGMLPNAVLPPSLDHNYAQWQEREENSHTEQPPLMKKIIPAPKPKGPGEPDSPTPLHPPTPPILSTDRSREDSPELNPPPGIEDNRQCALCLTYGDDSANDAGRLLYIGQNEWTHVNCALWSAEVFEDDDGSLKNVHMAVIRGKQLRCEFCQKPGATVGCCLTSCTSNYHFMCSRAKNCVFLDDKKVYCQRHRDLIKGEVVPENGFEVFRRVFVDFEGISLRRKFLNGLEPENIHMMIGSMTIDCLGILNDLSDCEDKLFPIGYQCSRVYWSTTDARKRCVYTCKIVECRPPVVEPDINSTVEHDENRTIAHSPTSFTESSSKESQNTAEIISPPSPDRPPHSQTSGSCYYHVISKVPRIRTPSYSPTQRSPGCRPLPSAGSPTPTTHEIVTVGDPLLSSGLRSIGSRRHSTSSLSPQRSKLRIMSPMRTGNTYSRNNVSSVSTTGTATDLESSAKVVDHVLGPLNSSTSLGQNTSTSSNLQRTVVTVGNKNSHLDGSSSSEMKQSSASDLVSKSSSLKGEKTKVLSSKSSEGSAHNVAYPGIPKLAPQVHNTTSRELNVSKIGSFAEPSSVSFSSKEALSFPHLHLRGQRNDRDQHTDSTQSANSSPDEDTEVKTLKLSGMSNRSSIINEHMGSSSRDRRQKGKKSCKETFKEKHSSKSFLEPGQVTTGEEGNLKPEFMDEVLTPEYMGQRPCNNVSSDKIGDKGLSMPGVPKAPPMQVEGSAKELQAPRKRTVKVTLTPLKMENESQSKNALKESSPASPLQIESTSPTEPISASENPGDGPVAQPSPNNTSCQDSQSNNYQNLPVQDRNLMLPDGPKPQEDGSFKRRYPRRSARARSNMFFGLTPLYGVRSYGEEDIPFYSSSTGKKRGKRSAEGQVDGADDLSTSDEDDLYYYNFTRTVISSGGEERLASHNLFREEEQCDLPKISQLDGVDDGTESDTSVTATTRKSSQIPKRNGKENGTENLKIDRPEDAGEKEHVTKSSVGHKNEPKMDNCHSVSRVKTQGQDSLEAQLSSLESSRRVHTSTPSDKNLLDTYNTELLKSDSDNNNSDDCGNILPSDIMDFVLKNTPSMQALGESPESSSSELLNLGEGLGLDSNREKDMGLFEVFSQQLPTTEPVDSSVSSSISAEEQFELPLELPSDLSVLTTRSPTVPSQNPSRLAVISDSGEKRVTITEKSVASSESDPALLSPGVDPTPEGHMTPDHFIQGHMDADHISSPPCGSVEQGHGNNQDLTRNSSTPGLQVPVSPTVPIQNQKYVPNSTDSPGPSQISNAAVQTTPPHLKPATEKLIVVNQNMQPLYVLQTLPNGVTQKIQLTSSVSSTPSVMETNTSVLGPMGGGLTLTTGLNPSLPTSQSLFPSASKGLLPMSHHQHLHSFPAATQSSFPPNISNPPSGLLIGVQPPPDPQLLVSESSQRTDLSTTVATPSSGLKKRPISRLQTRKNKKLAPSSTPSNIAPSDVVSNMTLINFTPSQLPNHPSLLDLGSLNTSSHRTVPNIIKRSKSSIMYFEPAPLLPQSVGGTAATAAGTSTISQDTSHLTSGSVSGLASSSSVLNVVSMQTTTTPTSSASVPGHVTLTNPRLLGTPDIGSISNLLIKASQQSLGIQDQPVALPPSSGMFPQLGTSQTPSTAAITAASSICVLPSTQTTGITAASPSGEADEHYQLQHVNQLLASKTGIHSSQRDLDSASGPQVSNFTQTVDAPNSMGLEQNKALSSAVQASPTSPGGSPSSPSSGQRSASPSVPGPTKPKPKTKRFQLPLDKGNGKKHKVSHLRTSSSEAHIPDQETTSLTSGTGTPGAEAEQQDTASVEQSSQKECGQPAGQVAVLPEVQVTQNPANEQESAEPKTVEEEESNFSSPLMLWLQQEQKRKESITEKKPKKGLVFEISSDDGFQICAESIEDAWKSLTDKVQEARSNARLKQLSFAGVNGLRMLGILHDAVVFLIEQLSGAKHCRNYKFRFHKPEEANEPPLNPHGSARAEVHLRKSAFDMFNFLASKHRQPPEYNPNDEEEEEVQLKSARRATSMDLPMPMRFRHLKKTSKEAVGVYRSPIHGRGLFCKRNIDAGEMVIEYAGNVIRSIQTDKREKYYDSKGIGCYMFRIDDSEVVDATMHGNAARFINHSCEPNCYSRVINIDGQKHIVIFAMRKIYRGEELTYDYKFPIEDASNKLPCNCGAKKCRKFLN

SMILES | Potency | activity change, negative = inhibition
C=C(C)COc1ccc2c(C)c(CC(=O)N3C[C@H]4C[C@@H](C3)c3cccc(=O)n3C4)c(=O)oc2c1C | inconclusive: 11.2 µM [fluorescent, side channel, partial curve] | –
CCOc1ccc(N=C2NN=C(c3cc(C)n(CC4CCCO4)c3C)CS2)cc1 (stereo unspecified) | inconclusive: 35.5 µM [fluorescent, side channel, partial curve] | –
NC(=O)c1c(NC(=O)c2cccc(N3C(=O)CCC3=O)c2)sc2c1CCCCC2 | inconclusive: 31.6 µM [fluorescent, side channel, partial curve] | –
N#Cc1c(-c2cccc(Br)c2)cc(-c2ccco2)[nH]c1=O | inconclusive: 11.2 µM [fluorescent, side channel, partial curve] | –
CSc1ncc(C(=O)Nc2ccc(Br)cn2)c(C)n1 | inconclusive: 89.1 µM [inhibitor, single point] | –
CC1CCN(C(=O)CSc2nncn2C)CC1 | inconclusive: 35.5 µM [inhibitor, single point] | –
CC(=O)c1c(C)nc(-c2ccccc2)nc1N | inconclusive: 14.1 µM [inhibitor, single point] | –
CCn1c(COc2ccc(C)cc2)nnc1SCC(=O)NCc1ccco1 | inconclusive: 70.8 µM [quencher, side channel, single point] | –
O=C(OCC(=O)N1CCCCCC1)c1ccc(S(=O)(=O)N2CCOCC2)cc1 | inconclusive: 14.1 µM [fluorescent, side channel, full curve] | –
C1=C(c2ccccc2)Nc2nnnn2C1c1cccs1 (stereo unspecified) | inconclusive: 70.8 µM [fluorescent, side channel, single point] | –
Cc1cc(C(=O)O)ccc1N=Cc1c(O)ccc2ccccc12 | inconclusive: 25.1 µM [fluorescent, side channel, partial curve] | –
COc1ccc([C@@H]2CC(=O)c3c(O)cc(O[C@H]4O[C@@H](CO[C@H]5O[C@@H](C)[C@@H](O)[C@@H](O)[C@@H]5O)[C@@H](O)[C@@H](O)[C@@H]4O)cc3O2)cc1O | – | inactive: -0.0177% [at 51.4 µM]
COCCC(=O)N1CCC(Oc2ccc(C(=O)N(C)CCCC3CCCC3)cc2)CC1 | inconclusive: 5.62 µM [fluorescent, side channel, partial curve] | –
COc1ccc(NC(=O)CSc2nncn2C)cc1 | inconclusive: 10 µM [fluorescent, side channel, partial curve] | –
O=C(CSc1ccccn1)NC1CCCC1 | inconclusive: 15.8 µM [quencher, side channel, single point] | –
CCN(CC)C(=O)CN1CCN(Cc2ccc3c(c2)OCO3)CC1 | inconclusive: 63.1 µM [fluorescent, side channel, single point] | –
O=C(NCCc1c[nH]c2ccccc12)C1CCN(S(=O)(=O)c2ccccc2)CC1 | inconclusive: 8.91 µM [inhibitor, full curve] | –
CCOC(=O)c1ccc(-n2c(N)c(C(=O)NCc3ccco3)sc2=S)cc1 | inconclusive: 63.1 µM [fluorescent, side channel, single point] | –
CCOC(=O)CNC(=O)CN1C(=O)CC(c2ccccc2)S(=O)(=O)c2ccccc21 (stereo unspecified) | inconclusive: 1 µM [fluorescent, side channel, full curve, poor fit] | –
CC1=CCC2C(=O)N(c3ccc(C(=O)Nc4ccccc4Cl)cc3)C(=O)C2C1 (stereo unspecified) | inconclusive: 89.1 µM [inhibitor, single point] | –
CCC(C)COC(c1ccccc1)(c1ccccc1)C(Oc1nc(C)cc(C)n1)C(=O)O (stereo unspecified) | inconclusive: 8.91 µM [inhibitor, full curve, poor fit] | –

SMILES | Potency | activity change, negative = inhibition
CCOc1ccc(NC(=S)Nc2cccc3ccccc23)cc1 | inconclusive: 15.8 µM [fluorescent, side channel, single point] | –
COc1ccc(C(=O)NNC(=O)C(Cc2ccc(O)cc2)NC(=O)c2ccccc2NC(=O)c2ccc(OC)cc2)cc1 (stereo unspecified) | – | inactive: 12.1%
CC(=O)N1CCc2cc(S(=O)(=O)CCC(=O)N3CCN(c4cc(C)ccc4C)CC3)ccc21 | inconclusive: 7.94 µM [quencher, side channel, partial curve] | –
NC(=S)NN=C1c2cc(OCCN3CCOCC3)ccc2-c2ccc(OCCN3CCOCC3)cc21 | inconclusive: 25.1 µM [quencher, side channel, partial curve] | –
Cc1cc(C)n2nc(C(=O)Nc3c(C)nn(Cc4ccc(F)cc4)c3C)cc2n1 | inconclusive: 39.8 µM [fluorescent, side channel, partial curve] | –
Cc1onc(-c2c(Cl)cccc2Cl)c1C(=O)NC1C(=O)N2C1SC(C)(C)C2C(=O)O (stereo unspecified) | – | inactive: 0.408%
CN(C)S(=O)(=O)c1cc(NC(=O)CN2C(=O)NC3(CCCc4ccccc43)C2=O)ccc1Cl (stereo unspecified) | inconclusive: 8.91 µM [fluorescent, side channel, full curve] | –
CN(CCCN1CCOCC1)Cc1cn(C)nc1-c1ccccc1F | inconclusive: 3.16 µM [inhibitor, full curve] | –
CC(=O)/C(=N/Nc1ccccc1)N1CCOCC1 | – | inactive: 4.83%
c1ccc(CCNc2ccnc3cc4ccccc4cc23)cc1 | inconclusive: 50.1 µM [quencher, side channel, single point] | –
COc1ccc(C2c3ccc4ccccc4c3Oc3ncn(CCN(C)C)c(=N)c32)cc1 (stereo unspecified) | inconclusive: 70.8 µM [fluorescent, side channel, single point] | –
Cc1ccccc1-c1nc(CS(=O)(=O)CC(=O)NCCN2CCOCC2)c(C)o1 | – | inactive: -7.35%
COc1ccc(C(=O)c2ccc(Br)cc2)c2ccccc12 | inconclusive: 28.2 µM [inhibitor, single point] | –
O=c1c2ccccc2c(C=Nc2cccc(S(=O)(=O)NCc3ccco3)c2)c(O)n1-c1ccc(Cl)cn1 | inconclusive: 2.24 µM [fluorescent, side channel, full curve, poor fit] | –
Cc1cc(=O)[nH]c2n[nH]c(-c3ccccc3)c12 | – | inactive: 5.68%
CN(C)CCN(Cc1ccc(Cl)cc1)c1ccccn1 | – | inactive: 11.9%
COc1cc(/C=C(\C#N)c2ccccn2)ccc1OCC(=O)Nc1ccc(Br)cc1 | – | inactive: 5.25%
O=C(CNC(=S)NC(=O)c1ccccc1Br)c1ccccc1 | inconclusive: 7.08 µM [fluorescent, side channel, full curve] | –
O=C(O)c1ccc(Cl)c(S(=O)(=O)N(Cc2ccccc2)c2ccc(F)cc2)c1 | inconclusive: 11.2 µM [inhibitor, single point] | –
Cc1ccc(Cl)c2c(N=Nc3ccccc3)c(O)[nH]c12 | inconclusive: 31.6 µM [fluorescent, side channel, partial curve] | –
COc1ccc(CC(=O)NC(C)c2nnc(SCC(=O)Nc3ccccc3F)n2C)cc1 (stereo unspecified) | – | inactive: 13.7%

SMILES | Potency | activity change, negative = inhibition
COc1cc(CNC2CCCC2)cc(Cl)c1OCc1ccccc1Cl | inconclusive: 31.6 µM [quencher, side channel, partial curve] | –
CCN1c2ccccc2N(C)C1(C)c1ccccc1 (stereo unspecified) | – | inactive: 4.38%
CCC1C/C(=C\c2cc(OC)c(OC)cc2OC)C(=O)/C(=C/c2cc(OC)c(OC)cc2OC)C1 (stereo unspecified) | inconclusive: 70.8 µM [fluorescent, side channel, partial curve] | –
COc1ccc(CCN(C)Cc2ccc(OCc3ccccc3)c(OC)c2)cc1OC | – | inactive: 18.5%
COc1ccc(N2C(=O)[C@@H]3[C@H](C2=O)[C@H]2c4ccccc4C=CN2[C@@H]3C(=O)Nc2ccccc2)cc1 | inconclusive: 39.8 µM [fluorescent, side channel, partial curve] | –
CC(C)c1ccc2[nH]c3c(c2c1)CCCC3=O | – | inactive: 0.53%
COCCn1c(=NC(=O)c2cc(-c3cccs3)nc3ccccc23)sc2cc(S(N)(=O)=O)ccc21 | – | inactive: -2.93%
O=C(O)CCN1C(=O)/C(=C\c2ccc(-c3nc4ccccc4s3)o2)SC1=S | inconclusive: 31.6 µM [inhibitor, partial curve] | –
COc1ccc(N(CC(=O)NCc2ccccc2)S(C)(=O)=O)cc1 | – | inactive: 5.45%
Cc1ccc(/C(C#N)=C\c2ccc(N3CCOCC3)o2)cc1 | inconclusive: 35.5 µM [fluorescent, side channel, single point] | –
COc1ccc(C(=O)/C=C/c2cc(OC)c(O)c(OC)c2)c(F)c1 | inconclusive: 7.94 µM [fluorescent, side channel, full curve, poor fit] | –
O=C(NCCc1ccc(Cl)cc1Cl)c1cncc(Br)c1 | inconclusive: 70.8 µM [fluorescent, side channel, single point] | –
COc1cccc(NS(=O)(=O)c2ccc(Br)s2)c1 | – | inactive: 6.18%
COc1ccc(Nc2nc(NCc3ccco3)nc(N/N=C/c3ccccc3F)n2)cc1 | – | inactive: 19.5%
Nc1ccc(-c2ccc(N)c(C(=O)O)c2)cc1C(=O)O | inconclusive: 12.6 µM [inhibitor, single point] | –
CCOc1cc(/C=C(/C#N)C(=O)Nc2ccc(OC)cc2)ccc1OCc1ccc(C(=O)O)cc1 | inconclusive: 5.62 µM [inhibitor, full curve, poor fit] | –
Cc1ccccc1NCC(=O)c1ccc(Br)cc1 | – | inactive: 12.6%
COc1ccc(CCN2C(=O)CS/C2=N\NC(=O)c2cccs2)cc1OC | inconclusive: 12.6 µM [inhibitor, full curve, poor fit] | –
COc1ccc(N2CCN(C(=O)c3ccccc3N(C)S(=O)(=O)c3ccc(C)cc3)CC2)cc1 | inconclusive: 14.1 µM [fluorescent, side channel, single point] | –

Some values from the results shown:
COCCC(=O)N1CCC(Oc2ccc(C(=O)N(C)CCCC3CCCC3)cc2)CC1 | Potency: inconclusive: 5.62 µM [fluorescent, side channel, partial curve]
COc1cc(/C=C(\C#N)c2ccccn2)ccc1OCC(=O)Nc1ccc(Br)cc1 | activity change, negative = inhibition: inactive: 5.25%
